Reference: patent US20230235052A1 (GRACELL BIOTECHNOLOGIES SHANGHAI, published 2023)
Positions count from the first letter of the chain named. Results are given in words; binding and its absence hold for the method and conditions named. Some results given as binding are weak or reduced against the parent protein; the word gives no strength.

B1: humanized CD19 antibody VH1 + VL1 (antibody, V domains shown)
VH: QVQLQESGPGLVKPSQTLSLTCTVSGVSLPDYGVSWIRQPPGKGLEWIGVIWGSETTYYNSALKSRVTISVDTSKNQFSLKLSSVTAADTAVYYCARHYYYGGSYAMDYWGQGTTVTVSS
VL: DIQMTQSPSSLSASVGDRVTITCRASQDISKYLNWYQQKPGKAPKLLIYHTSRLHSGVPSRFSGSGSGTDFTFTISSLQPEDIATYYCQQGNTLPYTFGGGTKLEIK
notes: also called Antibody No. 1
B2: humanized CD19 antibody VH1 + VL3 (antibody, V domains shown)
VH: B1 VH
VL: B1 VL with F71Y, F73L
notes: also called Antibody No. 3

Target: T1, human CD19 antigen (human, UniProt P15391 20-291, limits assumed)
T1 sequence (looked up): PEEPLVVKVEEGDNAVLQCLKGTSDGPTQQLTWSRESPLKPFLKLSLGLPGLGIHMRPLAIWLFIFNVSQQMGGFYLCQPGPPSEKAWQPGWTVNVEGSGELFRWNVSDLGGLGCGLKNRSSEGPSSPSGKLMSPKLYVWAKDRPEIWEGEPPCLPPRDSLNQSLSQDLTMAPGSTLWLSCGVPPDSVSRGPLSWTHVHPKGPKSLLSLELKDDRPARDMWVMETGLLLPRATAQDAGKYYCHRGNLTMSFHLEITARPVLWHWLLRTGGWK
Experiment: flow cytometry of CAR-T cells carrying the scFv (VL-VH) of this antibody as CAR, stained with CD19 antigen, percent CAR+ cells

Row | Binder | binding
1 | B1 | binds
2 | B2 | binds
